In patent US20100004165A1, “Novel Protein Transduction Domains and Uses Therefor” (The Arizona Board of Regents, a body corporate acting on …, priority 2005, published 2010):
At least one compound was matched to its structure with a doubt left.

System: 3T3 fibroblasts
Assay: Transduction of FITC-labeled peptides into 3T3 fibroblasts (fluorescence imaging)
Assay type: cell-based
Settings: 50 μM, 1 hour, media with or without serum
Protocol: FITC-(b)[…] (SEQ ID NO: 37)(WLRRIKA (SEQ ID NO: 3) monomer), FITC-(b)[…] (SEQ ID NO: 38)(WLRRIKA (SEQ ID NO: 3) dimer), and FITC-(b)[…] (SEQ ID NO: 39)(WLRRIKA (SEQ ID NO: 3) trimer) were synthesized on a 0.2 mmol scale using Fmoc-based solid phase peptide synthesis. The peptides were solubilized in water to create 3 mM stock solutions. 3T3 fibroblasts, cultured in Dulbecco's Modified Eagle Medium (DMEM) with 2 mM glutamine, pen/strep antibiotic, and 10% fetal bovine serum (FBS), were seeded at a density of 50,000 cells per well (1 ml of 50,000 cells/ml) in 4-well chambered slides (4 slides were used). The slides were incubated at 37° C. with 5% CO2 in a humidified incubator for 4 hours to allow the cells to adhere to the slides. After 4 hours, each well was washed 3 times with phosphate buffered saline (PBS). 50 μl of a 3 mM stock of each peptide as well as a 3 mM stock of fluorescein in water were added to 15 ml tubes containing 3 ml of DMEM with 2 mM glutamine, antibiotic, and 10% FBS and to 15 ml tubes containing 3 ml of serum-free DMEM with 2 mM glutamine and antibiotic. Treatments were performed in duplicate for both serum-containing and serum-free DMEM. On each slide system, each well received media (either with or without serum) with fluorescein, WLRRIKA (SEQ ID NO: 3) monomer, WLRRIKA (SEQ ID NO: 3) dimer, or WLRRIKA (SEQ ID NO: 3) trimer. […]

With `O=C1OC2(c3ccc(O)cc3Oc3cc(O)ccc32)c2ccccc21` [fluorescein] the “fluorescence within the cells (ability to penetrate the cells)” value was “No fluorescent signal was observed”.
